Assay results reported in publication PMC12286842.
Results are given in words; binding and its absence hold for the method and conditions named. For part of these data: In cells and extracts the contact can be indirect. Some binding calls cover weakened binding; strength is not graded here.

Amino acid sequences for entries named in this document (tags omitted). A change or cut given only in a name is not applied to a line headed by its entry. Chains listed by the source or under a name are the forms on record and can include a tag or linker.
UniProt Q5T4S7: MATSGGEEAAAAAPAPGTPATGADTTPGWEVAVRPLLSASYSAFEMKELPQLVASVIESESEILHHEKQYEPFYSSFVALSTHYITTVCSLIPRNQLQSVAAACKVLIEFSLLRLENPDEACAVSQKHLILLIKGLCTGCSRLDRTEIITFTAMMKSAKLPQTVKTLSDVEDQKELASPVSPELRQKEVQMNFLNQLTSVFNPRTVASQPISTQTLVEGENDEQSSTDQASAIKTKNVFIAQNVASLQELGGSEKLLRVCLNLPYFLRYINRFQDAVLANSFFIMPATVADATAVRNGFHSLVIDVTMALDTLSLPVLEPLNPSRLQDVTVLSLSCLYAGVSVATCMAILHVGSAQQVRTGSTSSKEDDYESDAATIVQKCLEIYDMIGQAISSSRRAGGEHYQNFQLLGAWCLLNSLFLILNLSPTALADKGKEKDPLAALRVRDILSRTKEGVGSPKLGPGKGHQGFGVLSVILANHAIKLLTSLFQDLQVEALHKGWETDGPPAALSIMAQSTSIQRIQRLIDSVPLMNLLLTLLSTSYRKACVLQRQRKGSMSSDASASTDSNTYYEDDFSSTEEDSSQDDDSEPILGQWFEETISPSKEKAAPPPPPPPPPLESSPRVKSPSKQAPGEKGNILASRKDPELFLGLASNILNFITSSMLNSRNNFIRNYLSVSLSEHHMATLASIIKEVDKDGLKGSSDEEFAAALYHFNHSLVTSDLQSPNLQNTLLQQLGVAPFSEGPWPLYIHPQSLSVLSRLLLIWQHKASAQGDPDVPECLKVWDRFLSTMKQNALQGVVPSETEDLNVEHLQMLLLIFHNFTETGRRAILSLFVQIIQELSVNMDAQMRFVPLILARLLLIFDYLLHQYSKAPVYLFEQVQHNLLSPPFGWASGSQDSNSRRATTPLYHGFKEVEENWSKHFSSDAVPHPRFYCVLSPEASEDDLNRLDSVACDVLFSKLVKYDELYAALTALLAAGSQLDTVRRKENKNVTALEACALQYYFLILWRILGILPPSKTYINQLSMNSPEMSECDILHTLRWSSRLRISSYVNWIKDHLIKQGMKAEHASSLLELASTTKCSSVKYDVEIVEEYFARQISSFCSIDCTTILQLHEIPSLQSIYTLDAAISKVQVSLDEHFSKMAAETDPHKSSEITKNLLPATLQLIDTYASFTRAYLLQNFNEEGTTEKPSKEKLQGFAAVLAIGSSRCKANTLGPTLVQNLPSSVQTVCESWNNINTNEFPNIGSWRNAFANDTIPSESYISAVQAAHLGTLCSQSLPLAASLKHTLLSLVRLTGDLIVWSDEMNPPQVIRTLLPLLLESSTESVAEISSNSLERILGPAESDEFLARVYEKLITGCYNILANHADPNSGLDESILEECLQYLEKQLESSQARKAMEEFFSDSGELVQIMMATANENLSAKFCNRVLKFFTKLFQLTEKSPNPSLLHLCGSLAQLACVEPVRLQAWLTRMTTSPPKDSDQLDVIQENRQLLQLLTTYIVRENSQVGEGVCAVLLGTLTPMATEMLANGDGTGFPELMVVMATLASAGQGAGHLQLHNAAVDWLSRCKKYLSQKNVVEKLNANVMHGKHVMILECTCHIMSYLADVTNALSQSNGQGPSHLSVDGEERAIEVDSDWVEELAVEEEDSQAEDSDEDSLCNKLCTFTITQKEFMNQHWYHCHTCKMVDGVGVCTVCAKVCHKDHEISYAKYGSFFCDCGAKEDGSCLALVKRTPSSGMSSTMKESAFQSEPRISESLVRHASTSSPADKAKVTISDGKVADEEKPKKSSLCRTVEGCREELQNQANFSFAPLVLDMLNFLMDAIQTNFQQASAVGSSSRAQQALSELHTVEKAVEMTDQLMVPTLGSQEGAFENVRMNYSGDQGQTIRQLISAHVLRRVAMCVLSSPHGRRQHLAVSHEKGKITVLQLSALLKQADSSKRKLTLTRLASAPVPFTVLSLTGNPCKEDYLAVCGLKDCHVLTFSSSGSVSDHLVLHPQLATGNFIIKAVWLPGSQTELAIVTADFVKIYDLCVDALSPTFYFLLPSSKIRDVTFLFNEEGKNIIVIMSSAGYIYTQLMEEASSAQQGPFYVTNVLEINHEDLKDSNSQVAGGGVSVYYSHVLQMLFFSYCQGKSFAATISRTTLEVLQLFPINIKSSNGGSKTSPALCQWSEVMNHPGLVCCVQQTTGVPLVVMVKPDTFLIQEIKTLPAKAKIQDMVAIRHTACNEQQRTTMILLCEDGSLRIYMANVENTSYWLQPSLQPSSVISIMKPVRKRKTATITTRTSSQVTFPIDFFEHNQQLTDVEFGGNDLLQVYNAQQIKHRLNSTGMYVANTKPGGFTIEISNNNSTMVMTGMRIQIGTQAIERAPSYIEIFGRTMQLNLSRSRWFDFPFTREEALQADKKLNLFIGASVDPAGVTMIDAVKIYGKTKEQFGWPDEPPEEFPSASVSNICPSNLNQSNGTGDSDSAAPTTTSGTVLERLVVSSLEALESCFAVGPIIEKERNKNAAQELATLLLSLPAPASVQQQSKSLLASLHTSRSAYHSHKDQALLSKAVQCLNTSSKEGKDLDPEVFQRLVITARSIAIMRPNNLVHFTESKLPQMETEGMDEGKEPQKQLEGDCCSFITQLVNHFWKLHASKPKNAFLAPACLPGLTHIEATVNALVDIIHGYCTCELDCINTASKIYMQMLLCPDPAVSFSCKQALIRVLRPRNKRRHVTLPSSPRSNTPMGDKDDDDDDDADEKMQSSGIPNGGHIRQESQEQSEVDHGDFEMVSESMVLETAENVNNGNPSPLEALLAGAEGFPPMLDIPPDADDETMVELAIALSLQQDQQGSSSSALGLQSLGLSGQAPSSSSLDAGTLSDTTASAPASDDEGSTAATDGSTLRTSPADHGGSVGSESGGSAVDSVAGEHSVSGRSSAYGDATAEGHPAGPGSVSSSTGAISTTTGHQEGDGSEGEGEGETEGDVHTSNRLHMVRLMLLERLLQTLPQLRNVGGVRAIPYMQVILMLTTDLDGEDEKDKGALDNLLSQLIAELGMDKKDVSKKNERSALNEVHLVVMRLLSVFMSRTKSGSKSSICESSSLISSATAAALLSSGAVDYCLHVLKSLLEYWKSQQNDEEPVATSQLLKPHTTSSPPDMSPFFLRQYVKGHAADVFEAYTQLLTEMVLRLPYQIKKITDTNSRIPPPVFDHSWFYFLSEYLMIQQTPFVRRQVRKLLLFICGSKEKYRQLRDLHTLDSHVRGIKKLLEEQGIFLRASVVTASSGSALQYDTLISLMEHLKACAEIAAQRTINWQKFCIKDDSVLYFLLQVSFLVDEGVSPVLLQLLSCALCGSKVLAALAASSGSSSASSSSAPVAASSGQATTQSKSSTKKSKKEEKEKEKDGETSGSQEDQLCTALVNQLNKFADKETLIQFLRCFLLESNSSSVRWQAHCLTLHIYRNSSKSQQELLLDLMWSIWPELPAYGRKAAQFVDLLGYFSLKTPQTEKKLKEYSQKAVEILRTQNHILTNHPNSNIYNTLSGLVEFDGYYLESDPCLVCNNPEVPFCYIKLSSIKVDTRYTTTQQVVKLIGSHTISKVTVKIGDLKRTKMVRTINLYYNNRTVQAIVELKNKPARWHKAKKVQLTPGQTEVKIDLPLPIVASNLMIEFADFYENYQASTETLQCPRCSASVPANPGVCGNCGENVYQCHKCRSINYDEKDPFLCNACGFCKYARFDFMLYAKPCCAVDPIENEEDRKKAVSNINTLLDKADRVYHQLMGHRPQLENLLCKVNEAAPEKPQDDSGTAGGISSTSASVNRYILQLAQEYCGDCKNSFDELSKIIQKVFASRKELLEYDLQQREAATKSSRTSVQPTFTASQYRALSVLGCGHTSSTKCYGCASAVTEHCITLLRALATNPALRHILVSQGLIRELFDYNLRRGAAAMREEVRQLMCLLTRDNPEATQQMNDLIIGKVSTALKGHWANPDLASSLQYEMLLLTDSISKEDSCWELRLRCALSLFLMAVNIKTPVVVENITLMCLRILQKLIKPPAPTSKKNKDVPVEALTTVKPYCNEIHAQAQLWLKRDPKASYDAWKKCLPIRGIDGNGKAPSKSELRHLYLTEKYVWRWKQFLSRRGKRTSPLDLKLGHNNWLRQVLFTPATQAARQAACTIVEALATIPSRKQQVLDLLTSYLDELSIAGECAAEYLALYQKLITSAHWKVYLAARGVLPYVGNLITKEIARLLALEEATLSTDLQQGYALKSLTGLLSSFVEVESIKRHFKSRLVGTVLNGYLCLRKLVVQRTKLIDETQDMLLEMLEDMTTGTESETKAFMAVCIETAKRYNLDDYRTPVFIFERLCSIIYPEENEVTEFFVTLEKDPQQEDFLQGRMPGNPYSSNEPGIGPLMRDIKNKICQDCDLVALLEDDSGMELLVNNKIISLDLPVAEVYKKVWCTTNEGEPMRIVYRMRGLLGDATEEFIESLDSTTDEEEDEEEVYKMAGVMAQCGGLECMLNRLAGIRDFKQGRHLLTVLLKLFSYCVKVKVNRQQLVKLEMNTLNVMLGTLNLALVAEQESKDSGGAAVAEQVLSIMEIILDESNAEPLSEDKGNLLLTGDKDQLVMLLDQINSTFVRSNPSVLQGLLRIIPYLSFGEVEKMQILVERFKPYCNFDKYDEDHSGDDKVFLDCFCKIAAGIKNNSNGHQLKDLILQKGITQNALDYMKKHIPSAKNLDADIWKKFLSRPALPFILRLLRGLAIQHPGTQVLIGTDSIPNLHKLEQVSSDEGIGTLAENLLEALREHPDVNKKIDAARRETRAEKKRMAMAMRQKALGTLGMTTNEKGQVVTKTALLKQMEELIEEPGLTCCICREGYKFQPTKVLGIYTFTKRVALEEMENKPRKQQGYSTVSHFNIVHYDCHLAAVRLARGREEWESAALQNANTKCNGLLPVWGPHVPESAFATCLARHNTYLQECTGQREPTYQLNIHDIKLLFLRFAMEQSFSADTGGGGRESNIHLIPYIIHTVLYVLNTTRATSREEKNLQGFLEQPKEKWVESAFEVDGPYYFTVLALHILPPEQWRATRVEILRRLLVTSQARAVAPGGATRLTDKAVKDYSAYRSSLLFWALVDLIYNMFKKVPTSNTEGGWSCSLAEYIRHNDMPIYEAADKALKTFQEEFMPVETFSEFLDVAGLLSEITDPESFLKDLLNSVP
UniProt Q9P0J7: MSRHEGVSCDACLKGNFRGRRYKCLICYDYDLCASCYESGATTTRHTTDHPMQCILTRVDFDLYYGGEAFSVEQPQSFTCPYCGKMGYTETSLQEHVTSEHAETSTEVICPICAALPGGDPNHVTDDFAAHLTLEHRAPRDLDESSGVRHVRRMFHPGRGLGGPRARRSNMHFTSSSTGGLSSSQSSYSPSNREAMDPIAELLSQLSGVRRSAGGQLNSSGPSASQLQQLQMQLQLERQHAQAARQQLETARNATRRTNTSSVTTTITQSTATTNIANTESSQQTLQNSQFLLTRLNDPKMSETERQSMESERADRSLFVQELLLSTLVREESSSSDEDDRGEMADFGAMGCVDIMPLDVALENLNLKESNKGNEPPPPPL
KCMF1–Flag Q226/228/229/231/233E (Q9P0J7, form named): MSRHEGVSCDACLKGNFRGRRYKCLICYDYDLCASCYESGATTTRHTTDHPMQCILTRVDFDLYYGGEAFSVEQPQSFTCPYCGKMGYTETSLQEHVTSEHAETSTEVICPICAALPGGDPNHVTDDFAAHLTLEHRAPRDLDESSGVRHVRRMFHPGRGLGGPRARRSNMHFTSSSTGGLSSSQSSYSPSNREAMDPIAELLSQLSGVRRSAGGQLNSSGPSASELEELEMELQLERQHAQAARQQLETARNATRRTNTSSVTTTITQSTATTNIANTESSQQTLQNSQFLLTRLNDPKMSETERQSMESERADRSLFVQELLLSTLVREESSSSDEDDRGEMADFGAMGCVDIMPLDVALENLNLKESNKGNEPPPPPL

Tests used:
[1] = molecular target: Flag–UBR4(ΔUBL) (human (endogenous in HEK293T)) (UniProt Q5T4S7); assay: co-IP; endogenous SIFI affinity-purified from WT or UBR4^ΔUBL cells, bound proteins detected by Western blot
[2] = molecular target: Flag–UBR4 (UBR4 tagged at its endogenous locus) (human (endogenous in HEK293T)) (UniProt Q5T4S7); assay: cryo-EM structure; endogenous SIFI immunoprecipitated through tagged UBR4 from HEK293T and run on Superose 6 SEC; the complex formed in cells and was co-purified; single-particle cryo-EM, AF2 models fitted in low-resolution regions
[3] = molecular target: KCMF1–Flag Q226/228/229/231/233E (human) (UniProt Q9P0J7); assay: co-IP; anti-Flag M2 affinity purification of KCMF1–Flag variants from cell lysate (40 mM HEPES 7.5, 150 mM NaCl, 0.1% NP-40), Western blot for endogenous UBR4, ABHD10 or ABHD10^HA
[4] = molecular target: KCMF1–3×Flag (wild type) (human) (UniProt Q9P0J7); assay: as above
[5] = molecular target: KCMF1–Flag R316E/F319E/L323E/L325E (human) (UniProt Q9P0J7); assay: as above
[6] = molecular target: Twin-Strep-II-tagged KCMF1 (human) (UniProt Q9P0J7); assay: cryo-EM structure; SIFI purified through Twin-Strep-II-tagged KCMF1 transiently expressed in Expi293F (Strep-Tactin XT, SEC); N-terminal partial map

Row | binding [1] | binding [2] | binding [3] | binding [4] | binding [5] | binding [6] | Substance
1 | binds | binds | – | – | – | – | KCMF1 (endogenous) (from UniProt Q9P0J7 1-381) (enzyme)
2 | – | – | binds | binds | binds | binds | UBR4 (endogenous, untagged) (from UniProt Q5T4S7-1 1-5183) (enzyme)
